Measured values as given in paper PMC3435311.

molecular target: T1, rice PDI-like protein 1-1 (PDIL1-1) (rice) (UniProt Q53LQ0); test: two-hybrid; pGBKT7-PDIL1-1 (BD) co-introduced with rice CP43 homologs in pGADT7 (AD) into AH109 yeast; plated on Leu-/Trp- and Leu-/Trp-/His- (5 mM 3-AT), incubated for 4 days
T1 sequence: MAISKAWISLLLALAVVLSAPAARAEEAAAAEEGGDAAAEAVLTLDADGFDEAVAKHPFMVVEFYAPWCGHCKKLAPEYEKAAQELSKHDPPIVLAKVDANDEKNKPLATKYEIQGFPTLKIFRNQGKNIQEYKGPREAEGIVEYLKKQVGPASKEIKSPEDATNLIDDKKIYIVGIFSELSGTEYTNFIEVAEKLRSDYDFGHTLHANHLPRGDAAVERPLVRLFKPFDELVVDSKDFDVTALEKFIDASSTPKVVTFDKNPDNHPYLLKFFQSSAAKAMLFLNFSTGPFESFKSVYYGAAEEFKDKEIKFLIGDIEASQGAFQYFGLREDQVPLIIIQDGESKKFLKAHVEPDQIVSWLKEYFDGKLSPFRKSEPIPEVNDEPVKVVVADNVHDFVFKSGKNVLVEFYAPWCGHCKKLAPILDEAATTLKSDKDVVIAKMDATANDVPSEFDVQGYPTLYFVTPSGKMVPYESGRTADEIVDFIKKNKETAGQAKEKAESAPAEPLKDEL

Row | Substance | binding
1 | oryzain β (rice) | no binding
2 | oryzain α (rice) | no binding
3 | rice papain-like cysteine protease XBCP3 | no binding

Results are given in words; binding and its absence hold for the method and conditions named.
